Structures can show the parent of a compound that is named as a salt. The list shows a part of the results. Repeats in this data set agree poorly, so a single value says little.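 A first-round screen of about ten thousand compounds sought those raising reporter output, using human embryonic kidney cells briefly transfected with a plasmid carrying a Renilla luciferase gene driven by the HSV-TK promoter.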

For this assay, the system named is HEK 293FT. The experiment in a line: log relative Renilla luciferase luminescence (reporter expression vs reference, reference not stated) (log (base not stated)); higher = higher recombinant reporter expression. As to conditions: 10 µM; time after transfection 48 h.
With `CC(=O)OC1CC2CCC1(C)C2(C)C` (configuration not stated) [bornyl acetate], the log is 0.0261. To `O=c1cc[nH]c(=S)[nH]1` [2-thiouracil] belongs -0.0418; to `CC(=O)O[C@@H]1C[C@@]23C[C@@]24CC[C@H](O[C@@H]2OC[C@@H](O)[C@H](O)[C@H]2O)C(C)(C)[C@@H]4CC[C@H]3[C@]2(C)C[C@@H]3O[C@]4(C[C@@H](C)[C@@H]3[C@@]12C)O[C@H](O)[C@@]1(C)O[C@@H]41` [actein], -0.0168; to `CN(C)c1nc(N(C)C)nc(N(C)C)n1` [altretamine], 0.123. Turning to `CC(C)NCC(O)c1ccc2ccccc2c1` (configuration not stated) [pronetalol hydrochloride], the log stood at 0.0119.

Consider `N[C@@H](Cc1ccccc1)C(=O)O` [phenylalaniine (l) hydrochloride], for which the log amounted to 0.105.

For `O=C(O)c1cc(-c2ccccc2)nc2ccccc12` [cinchophen], the log is -0.987. To `CC(=O)O[C@]1(C(C)=O)CC[C@H]2[C@@H]3C[C@H](C)C4=CC(=O)CC[C@]4(C)[C@H]3CC[C@@]21C` [medroxyprogesterone acetate] belongs 0.129; to `C[C@H]1C[C@@H]2[C@H]([C@@H](O)C[C@@]3(C)[C@H]2CC[C@]3(O)C(=O)CO)[C@@]2(C)C=CC(=O)C=C12` [methylprednisolone], -1.32.

As to `NC(=O)C(c1ccccc1)(c1ccccc1)[C@@H]1CCN(CCc2ccc3c(c2)CCO3)C1` [darifenacin hydrobromide], the log is 0.226.

As for `CCCNCC(O)COc1ccccc1C(=O)CCc1ccccc1` (configuration not stated) [propafenone hydrochloride], the log was 0.138. Regarding `O=C(Nc1ccccc1)Nc1ccccc1` [diphenylurea], the log worked out at 0.0115. To `O=[N+]([O-])c1cccc2cn[nH]c12` [7-nitroindazole] belongs 0.0747.

Consider `COc1ccccc1OCC(O)CN1CCN(CC(=O)Nc2c(C)cccc2C)CC1` (configuration not stated) [ranolazine], for which the log was determined as 0.0765. To `O=c1c(O)c(-c2ccccc2)oc2cc(O)ccc12` [3,7-dihydroxyflavone] belongs -0.178. For the compound `OC[C@H]1O[C@@H](Oc2cc(O)cc(/C=C/c3ccc(O)cc3)c2)[C@H](O)[C@@H](O)[C@@H]1O` [piceid], the log is 0.0271. Consider `COc1ccc(C2CNC(=O)C2)cc1OC1CCCC1` (configuration not stated) [rolipram], for which the log is -0.174. To `O=c1c(O)c(-c2ccc(O)cc2O)oc2cc(O)cc(O)c12` [morin] belongs -0.124; to `COc1cc(-c2coc3cc(O[C@@H]4O[C@H](CO)[C@@H](O)[C@H](O)[C@H]4O)c(OC)c(O)c3c2=O)cc(O)c1OC` [iridin], 0.0587. To `Cc1c(O)c(=O)ccn1C` [deferiprone] belongs 0.0205. To `c1ccc([C@H]2CN3CCSC3=N2)cc1` [levamisole hydrochloride] belongs -1.99; to `CCC(=O)O[C@]1(C(=O)CCl)[C@@H](C)C[C@H]2[C@@H]3CCC4=CC(=O)C=C[C@]4(C)[C@@]3(F)[C@@H](O)C[C@@]21C` [clobetasol propionate], 0.153; to `O=C1C[C@@H](c2ccc(O)cc2)Oc2cc(O)cc(O)c21` [naringenin], 0.00309. Consider `O=C1OCCN1/N=C/c1ccc([N+](=O)[O-])o1` [furazolidone], for which the log was -0.0961. Regarding `CC(C)[C@H](N)C(=O)OCC(CO)OCn1cnc2c(=O)nc(N)[nH]c21` (some centres not stated) [valganciclovir hydrochloride], the log came out at 0.107.

With `NC(=O)c1ccc([N+](=O)[O-])cc1Cl` [aklomide], the log came out at 0.0502.

For the compound `O=C(/C=C/C(=O)Oc1ccccc1C(=O)O)Oc1ccccc1C(=O)O` [bissalicyl fumarate], the log is 0.0931. As for `COc1c2occc2c(OC)c2c(=O)cc(C)oc12` [khellin], the log is -0.00699. To `C1CNCCN1` [piperazine] belongs 0.0618; to `Nc1cc(C(Cl)=C(Cl)Cl)c(S(N)(=O)=O)cc1S(N)(=O)=O` [clorsulon], -0.241.

`CC[C@H](C)C(=O)O[C@H]1CCC=C2C=C[C@H](C)[C@H](CC[C@@H]3C[C@@H](O)CC(=O)O3)[C@H]21` [mevastatin]: the log was 3.55e-05. `C[C@H](CCC(=O)O)[C@H]1CC[C@H]2[C@@H]3[C@H](O)C[C@@H]4C[C@H](O)CC[C@]4(C)[C@H]3CC[C@]12C` [chenodiol]: the log turned out to be 0.0109. Take `NNc1nncc2ccccc12` [hydralazine hydrochloride]: the log is 0.132. To `CC(=O)OCC(CCn1cnc2cnc(N)nc21)COC(C)=O` [famciclovir] belongs 0.101; to `O=C(/C=C/c1ccc(O)c(O)c1)OCCc1ccccc1` [phenethyl caffeate (cape)], -0.604. For `NCC(O)CC(=O)O` (configuration not stated) [aminohydroxybutyric acid], the log stood at 0.0815. On to `CN1CCN(CCCN2c3ccccc3Sc3ccc(Cl)cc32)CC1` [prochlorperazine edisylate], for which the log is -0.0274. Consider `O=C1c2ccccc2C(=O)c2c1ccc(O)c2O` [alizarin], for which the log stood at 0.216. To `CC(=O)Oc1cc(OC(C)=O)c2c(c1)O[C@H](c1ccc(OC(C)=O)c(OC(C)=O)c1)[C@H](OC(C)=O)C2` [epicatechin pentaacetate] belongs 0.121. For `CC(=O)O[C@H]1CC[C@@]2(C)[C@@H](CC[C@@H]3[C@@H]2CC(=O)[C@]2(C)[C@@H]4[C@H](C[C@@H]32)O[C@]2(CC[C@@H](C)CO2)[C@H]4C)C1` [hecogenin acetate], the log is 0.0824. In the case of `O=c1oc2ccccc2c(O)c1Cc1c(O)c2ccccc2oc1=O` [dicumarol], the log is -0.134. To `COC(=O)/C=C/C(C)=C\C=C\C(C)=C\C=C\C=C(C)\C=C\C=C(C)\C=C\C(=O)O` [bixin] belongs -0.699; to `O=S(=O)(O)NC1CCCCC1` [cyclamic acid], -0.0828; to `CC(C)NC[C@@H](O)COc1cccc2ccccc12` [dexpropranolol hydrochloride], 0.0263. On to `CCc1cn([C@H]2C[C@H](O)[C@@H](CO)O2)c(=O)[nH]c1=O` [edoxudine], for which the log is 0.00835. For the compound `C[C@@H]1O[C@@H](O[C@H]2[C@H](Oc3cc(O)c4c(=O)cc(-c5ccc(O)cc5)oc4c3)O[C@H](CO)[C@@H](O)[C@@H]2O)[C@H](O)[C@H](O)[C@H]1O` [rhoifolin], the log was -0.0187. To `CCN(CC)CCc1nc(-c2ccccc2)no1` [oxolamine citrate] belongs 0.0854. To `O=S(=O)([O-])NC1CCCCC1.[Na+]` [sodium cyclamate] belongs -0.0924; to `Cc1c(N(C)CS(=O)(=O)O)c(=O)n(-c2ccccc2)n1C` [dipyrone], 0.103. To `CN(C)[C@@H]1C(O)=C(C(=O)NCN2CCCC2)C(=O)[C@@]2(O)C(O)=C3C(=O)c4c(O)cccc4[C@@](C)(O)[C@H]3C[C@@H]12` [rolitetracycline] belongs -0.154; to `CC(NCCC(c1ccccc1)c1ccccc1)c1ccccc1` (configuration not stated) [fendiline hydrochloride], 0.0799; to `CC1(C)OC(=O)NC1=O` [dimethadione], -0.132. `N=C(N)NCC1COC2(CCCCC2)O1` (configuration not stated) [guanadrel sulfate]: the log is -0.0333. As to `CCC[C@H](N[C@@H](C)C(=O)N1[C@H](C(=O)O)C[C@@H]2CCCC[C@@H]21)C(=O)OCC` [perindopril erbumine], the log was -0.00801. As for `Cn1nnnc1SCC1=C(C(=O)O)N2C(=O)[C@@H](NC(=O)[C@H](O)c3ccccc3)[C@H]2SC1` [cefamandole sodium], the log was -0.0802. For the compound `COc1ccc(NS(=O)(=O)c2ccc(N)cc2)nn1` [sulfamethoxypyridazine], the log worked out at 0.0597.

Take `Nc1ccc(C(=O)NCC(=O)O)cc1` [aminohippuric acid]: the log came to 0.16. To `OC[C@H]1O[C@@H](Oc2ccc(O)cc2)[C@H](O)[C@@H](O)[C@@H]1O` [arbutin] belongs 0.0043; to `Nc1ccc(S(=O)(=O)c2ccc(N)cc2)cc1` [dapsone], 0.107; to `OCCN1CCN(CCCN2c3ccccc3Sc3ccc(Cl)cc32)CC1` [perphenazine], 0.224.

For the compound `CN(C)CCc1c[nH]c2ccc(Cn3cncn3)cc12` [rizatriptan benzoate], the log was determined as 0.0604. For `COc1cc(/C=C/C(=O)O)cc(OC)c1OC` [sinapic acid methyl ether], the log is 0.0467. In the case of `N[C@H]1C(O)O[C@H](CO)[C@@H](O)[C@@H]1O` (some centres not stated) [glucosamine hydrochloride], the log was determined as 0.125. To `C=C1C[C@H]2[C@@H]3C=C(C)C4=CC(=O)CC[C@]4(C)[C@H]3CC[C@]2(C)[C@@]1(OC(C)=O)C(C)=O` [melengestrol acetate] belongs -1.64; to `NC(C(=O)O)C(O)C(=O)O` (stereo not drawn) [d,l-threo-3-hydroxyaspartic acid], 0.0569.

Regarding `N=C(N)NC(=N)N1CCOCC1` [moroxydine hydrochloride], the log was found to be 0.0147.

On to `CC(=O)Oc1cccc2c1C(=O)c1c(OC(C)=O)cc(C(=O)O)cc1C2=O` [diacerin], for which the log was -0.0713. Regarding `CC1NC(=O)NC1=O` (configuration not stated) [5-methylhydantoin], the log amounted to 0.0116. To `Cc1ncc(CSSCc2cnc(C)c(O)c2CO)c(CO)c1O` [pyritinol] belongs 0.0418. To `CN1CCCCC1CCN1c2ccccc2Sc2ccc([S+](C)[O-])cc21` (configuration not stated) [mesoridazine besylate] belongs -0.0105; to `COc1c(-c2ccccc2)oc2cc(O)cc(O)c2c1=O` [galangin 3-o-methyl ether], 0.056. For `O=C(O[C@H]1CN2CCC1CC2)N1CCc2ccccc2[C@@H]1c1ccccc1` [solifenacin succinate], the log is -0.0467. Turning to `NC(=O)N/N=C/c1ccc([N+](=O)[O-])o1` [nitrofurazone], the log is -0.0277.

For `CC1=CC(=O)NS(=O)(=O)O1` [acesulfame potassium], the log worked out at 0.0874.

On to `CCCC(=O)Nc1ncnc2c1ncn2[C@@H]1O[C@@H]2COP(=O)(O)O[C@H]2[C@H]1OC(=O)CCC` [bucladesine], for which the log is 0.0261. To `CC(=O)N[C@@H](CCC(=O)O)C(=O)O` [acetylglutamic acid] belongs 0.114. To `CN(C)CCC[C@@]1(c2ccc(F)cc2)OCc2cc(C#N)ccc21` [escitalopram oxalate] belongs -1.46.

The record behind these values is the supplement of paper PMC7024190.
